Assay results published in patent US11008549B2, “In vitro model for a tumor microenvironment” (HemoShear, LLC, priority 2013, dated 2021).

Tested on: A549 cells
Experiment: IC50 for A549 cells in static 2D cultures (taken from the literature)
Format: cell-based
Conditions: A549 static 2D IC50 versus human Cmax

| Structure (SMILES) | fold increase of static 2D IC50 over Cmax [fold] |
| --- | --- |
| Cn1cnc2c(F)c(Nc3ccc(Br)cc3Cl)c(C(=O)NOCCO)cc21 [AZD6244/Selumetinib, Selumetinib] | 3.5 |
| NC1(c2ccc(-c3nc4ccn5c(=O)[nH]nc5c4cc3-c3ccccc3)cc2)CCC1 [MK2206] | ~19 |
